Laboratory results published in the supplement of paper PMC10849652.
Some of the results follow.

Sequences of proteins named here, by UniProt entry; tags and fusion partners are left off. A change or cut given only in a name is not applied to a line headed by its entry.
UniProt O95208: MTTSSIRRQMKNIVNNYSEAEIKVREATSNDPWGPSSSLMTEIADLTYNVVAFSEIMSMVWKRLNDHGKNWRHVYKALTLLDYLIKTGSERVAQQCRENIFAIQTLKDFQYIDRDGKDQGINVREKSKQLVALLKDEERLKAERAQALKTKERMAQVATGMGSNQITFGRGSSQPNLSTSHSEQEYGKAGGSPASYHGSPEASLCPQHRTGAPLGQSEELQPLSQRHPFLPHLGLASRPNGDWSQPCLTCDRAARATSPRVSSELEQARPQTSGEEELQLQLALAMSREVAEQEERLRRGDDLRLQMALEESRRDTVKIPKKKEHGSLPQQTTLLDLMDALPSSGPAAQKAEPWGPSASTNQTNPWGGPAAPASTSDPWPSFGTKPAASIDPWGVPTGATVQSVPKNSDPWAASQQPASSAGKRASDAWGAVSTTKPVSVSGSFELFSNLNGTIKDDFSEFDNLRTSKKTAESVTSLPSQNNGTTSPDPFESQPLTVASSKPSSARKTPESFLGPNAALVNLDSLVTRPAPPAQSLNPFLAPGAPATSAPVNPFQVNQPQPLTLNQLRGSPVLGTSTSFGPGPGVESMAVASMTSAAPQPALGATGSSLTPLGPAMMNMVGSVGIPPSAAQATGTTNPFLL
UniProt Q969X5: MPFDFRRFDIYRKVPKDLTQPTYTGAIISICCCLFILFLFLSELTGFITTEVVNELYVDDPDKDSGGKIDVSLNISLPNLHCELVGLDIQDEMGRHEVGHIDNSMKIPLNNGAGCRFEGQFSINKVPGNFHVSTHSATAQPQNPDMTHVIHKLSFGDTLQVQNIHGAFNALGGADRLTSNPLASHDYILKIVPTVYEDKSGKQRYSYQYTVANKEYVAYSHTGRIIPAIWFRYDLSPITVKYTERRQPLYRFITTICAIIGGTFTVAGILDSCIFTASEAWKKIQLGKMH
UniProt Q96DZ1: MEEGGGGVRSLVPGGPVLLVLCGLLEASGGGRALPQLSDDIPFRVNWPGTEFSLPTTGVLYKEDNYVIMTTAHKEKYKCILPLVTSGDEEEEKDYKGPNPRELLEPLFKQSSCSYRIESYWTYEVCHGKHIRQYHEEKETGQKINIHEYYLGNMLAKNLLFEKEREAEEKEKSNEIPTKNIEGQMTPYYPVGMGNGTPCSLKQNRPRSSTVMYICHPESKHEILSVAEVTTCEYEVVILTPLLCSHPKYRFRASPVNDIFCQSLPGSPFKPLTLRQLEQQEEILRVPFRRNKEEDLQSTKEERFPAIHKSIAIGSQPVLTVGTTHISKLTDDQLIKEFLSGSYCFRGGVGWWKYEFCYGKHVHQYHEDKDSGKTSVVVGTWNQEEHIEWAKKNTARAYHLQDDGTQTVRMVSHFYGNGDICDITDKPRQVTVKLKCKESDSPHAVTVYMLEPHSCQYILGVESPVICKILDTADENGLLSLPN
UniProt Q16134: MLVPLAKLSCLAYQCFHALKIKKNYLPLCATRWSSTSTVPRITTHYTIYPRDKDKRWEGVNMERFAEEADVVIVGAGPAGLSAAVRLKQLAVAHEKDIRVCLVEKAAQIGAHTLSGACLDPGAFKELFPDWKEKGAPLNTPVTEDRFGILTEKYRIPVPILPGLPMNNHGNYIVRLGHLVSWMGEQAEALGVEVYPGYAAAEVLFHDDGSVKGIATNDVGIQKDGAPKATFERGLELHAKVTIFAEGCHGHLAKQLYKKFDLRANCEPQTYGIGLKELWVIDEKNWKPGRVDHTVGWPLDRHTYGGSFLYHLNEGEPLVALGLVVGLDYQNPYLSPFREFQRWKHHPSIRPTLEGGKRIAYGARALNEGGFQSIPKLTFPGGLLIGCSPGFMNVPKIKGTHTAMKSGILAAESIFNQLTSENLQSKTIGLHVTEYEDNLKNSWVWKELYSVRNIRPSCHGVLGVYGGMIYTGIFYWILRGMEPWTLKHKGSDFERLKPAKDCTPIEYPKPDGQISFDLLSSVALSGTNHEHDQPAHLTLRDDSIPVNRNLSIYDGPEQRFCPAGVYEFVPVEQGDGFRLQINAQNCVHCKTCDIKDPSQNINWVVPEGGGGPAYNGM
UniProt Q96A26: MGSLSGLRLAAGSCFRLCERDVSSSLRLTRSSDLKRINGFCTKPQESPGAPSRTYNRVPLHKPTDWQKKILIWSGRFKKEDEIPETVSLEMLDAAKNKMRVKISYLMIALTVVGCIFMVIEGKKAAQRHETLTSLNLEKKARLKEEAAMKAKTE
UniProt O43909: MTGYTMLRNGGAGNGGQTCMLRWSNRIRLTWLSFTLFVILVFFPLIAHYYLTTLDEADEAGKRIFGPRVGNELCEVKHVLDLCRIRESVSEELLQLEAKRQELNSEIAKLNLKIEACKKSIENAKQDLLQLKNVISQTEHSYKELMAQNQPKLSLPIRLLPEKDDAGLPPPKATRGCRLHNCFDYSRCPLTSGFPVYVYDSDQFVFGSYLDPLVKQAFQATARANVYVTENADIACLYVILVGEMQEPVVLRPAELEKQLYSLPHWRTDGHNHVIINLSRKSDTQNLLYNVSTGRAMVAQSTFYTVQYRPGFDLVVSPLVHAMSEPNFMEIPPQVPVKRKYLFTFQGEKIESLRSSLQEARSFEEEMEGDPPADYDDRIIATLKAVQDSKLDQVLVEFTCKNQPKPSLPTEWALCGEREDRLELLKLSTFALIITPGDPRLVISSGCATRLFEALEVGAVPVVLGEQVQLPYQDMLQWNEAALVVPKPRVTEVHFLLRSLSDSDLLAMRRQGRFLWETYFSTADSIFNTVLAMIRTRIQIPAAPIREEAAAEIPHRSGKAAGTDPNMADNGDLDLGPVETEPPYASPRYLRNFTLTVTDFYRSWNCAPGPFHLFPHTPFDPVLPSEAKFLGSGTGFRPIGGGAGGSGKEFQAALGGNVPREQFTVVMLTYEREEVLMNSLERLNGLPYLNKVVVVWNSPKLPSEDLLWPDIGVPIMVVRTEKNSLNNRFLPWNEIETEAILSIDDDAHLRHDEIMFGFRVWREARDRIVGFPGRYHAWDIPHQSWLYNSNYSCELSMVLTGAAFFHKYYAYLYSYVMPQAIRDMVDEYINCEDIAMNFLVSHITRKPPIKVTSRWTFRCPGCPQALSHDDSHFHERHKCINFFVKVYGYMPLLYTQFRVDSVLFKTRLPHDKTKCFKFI
UniProt Q06265, whole entry, looked up: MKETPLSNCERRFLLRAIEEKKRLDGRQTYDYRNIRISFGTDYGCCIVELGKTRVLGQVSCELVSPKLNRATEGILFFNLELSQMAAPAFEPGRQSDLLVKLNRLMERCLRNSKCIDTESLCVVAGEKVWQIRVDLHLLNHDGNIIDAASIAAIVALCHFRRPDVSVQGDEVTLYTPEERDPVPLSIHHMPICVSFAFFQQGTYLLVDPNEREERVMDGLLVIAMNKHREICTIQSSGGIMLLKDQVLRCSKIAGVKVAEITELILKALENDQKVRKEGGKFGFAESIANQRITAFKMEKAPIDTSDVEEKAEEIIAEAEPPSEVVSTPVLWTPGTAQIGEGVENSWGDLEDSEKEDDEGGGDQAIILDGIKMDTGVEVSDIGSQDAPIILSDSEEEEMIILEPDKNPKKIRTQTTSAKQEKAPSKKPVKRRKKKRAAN
UniProt Q9NZ08: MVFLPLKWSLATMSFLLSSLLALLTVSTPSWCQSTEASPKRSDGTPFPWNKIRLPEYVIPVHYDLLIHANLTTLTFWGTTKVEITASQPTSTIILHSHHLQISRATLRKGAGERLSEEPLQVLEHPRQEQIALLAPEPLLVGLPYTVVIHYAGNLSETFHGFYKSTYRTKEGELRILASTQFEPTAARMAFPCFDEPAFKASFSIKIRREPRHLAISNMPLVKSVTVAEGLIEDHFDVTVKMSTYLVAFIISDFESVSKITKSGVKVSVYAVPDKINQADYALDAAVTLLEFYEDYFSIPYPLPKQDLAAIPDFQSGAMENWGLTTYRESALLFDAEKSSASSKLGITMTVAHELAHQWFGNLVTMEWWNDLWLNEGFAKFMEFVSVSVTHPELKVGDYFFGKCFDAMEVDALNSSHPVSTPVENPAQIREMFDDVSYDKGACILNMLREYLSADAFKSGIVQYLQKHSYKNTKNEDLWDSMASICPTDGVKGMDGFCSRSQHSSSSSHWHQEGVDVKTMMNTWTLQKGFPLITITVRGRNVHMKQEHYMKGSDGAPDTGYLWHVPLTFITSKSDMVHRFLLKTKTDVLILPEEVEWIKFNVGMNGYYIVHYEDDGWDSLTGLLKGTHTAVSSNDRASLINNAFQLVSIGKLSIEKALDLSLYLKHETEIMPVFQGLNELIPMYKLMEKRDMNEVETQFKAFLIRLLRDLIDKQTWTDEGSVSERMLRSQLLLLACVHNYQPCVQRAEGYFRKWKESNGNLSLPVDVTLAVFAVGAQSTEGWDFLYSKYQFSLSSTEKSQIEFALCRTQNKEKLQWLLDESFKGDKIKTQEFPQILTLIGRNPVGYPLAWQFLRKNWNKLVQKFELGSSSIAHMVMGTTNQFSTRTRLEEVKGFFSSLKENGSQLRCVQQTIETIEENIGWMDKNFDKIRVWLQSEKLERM
UniProt P16422: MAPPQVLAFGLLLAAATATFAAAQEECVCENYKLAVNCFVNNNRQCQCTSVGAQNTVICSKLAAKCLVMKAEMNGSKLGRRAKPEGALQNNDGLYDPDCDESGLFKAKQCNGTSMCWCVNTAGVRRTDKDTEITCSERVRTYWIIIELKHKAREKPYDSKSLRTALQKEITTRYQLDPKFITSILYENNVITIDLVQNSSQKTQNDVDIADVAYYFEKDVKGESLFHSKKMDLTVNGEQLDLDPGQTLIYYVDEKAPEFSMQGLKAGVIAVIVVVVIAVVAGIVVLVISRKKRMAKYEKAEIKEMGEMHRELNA
UniProt O60645: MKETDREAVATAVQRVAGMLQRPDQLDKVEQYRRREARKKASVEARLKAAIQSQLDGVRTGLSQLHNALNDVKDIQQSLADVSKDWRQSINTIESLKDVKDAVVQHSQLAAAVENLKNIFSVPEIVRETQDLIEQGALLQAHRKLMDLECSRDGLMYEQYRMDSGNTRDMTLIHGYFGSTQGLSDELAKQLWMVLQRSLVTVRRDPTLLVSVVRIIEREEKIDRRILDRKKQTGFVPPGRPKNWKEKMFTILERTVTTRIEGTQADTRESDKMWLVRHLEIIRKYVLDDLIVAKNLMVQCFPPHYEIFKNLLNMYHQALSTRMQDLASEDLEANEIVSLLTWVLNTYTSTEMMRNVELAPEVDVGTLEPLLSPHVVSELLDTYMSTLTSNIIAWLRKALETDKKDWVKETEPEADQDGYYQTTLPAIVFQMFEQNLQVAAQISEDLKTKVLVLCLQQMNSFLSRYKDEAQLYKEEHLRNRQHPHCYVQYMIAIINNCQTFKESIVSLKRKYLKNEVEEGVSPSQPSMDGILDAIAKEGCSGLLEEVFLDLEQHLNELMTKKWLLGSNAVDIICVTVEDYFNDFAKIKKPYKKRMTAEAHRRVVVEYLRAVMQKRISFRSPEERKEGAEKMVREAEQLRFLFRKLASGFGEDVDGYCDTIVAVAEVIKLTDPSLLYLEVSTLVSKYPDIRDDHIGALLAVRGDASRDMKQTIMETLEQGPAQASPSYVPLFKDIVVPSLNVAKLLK
UniProt Q9UBC2: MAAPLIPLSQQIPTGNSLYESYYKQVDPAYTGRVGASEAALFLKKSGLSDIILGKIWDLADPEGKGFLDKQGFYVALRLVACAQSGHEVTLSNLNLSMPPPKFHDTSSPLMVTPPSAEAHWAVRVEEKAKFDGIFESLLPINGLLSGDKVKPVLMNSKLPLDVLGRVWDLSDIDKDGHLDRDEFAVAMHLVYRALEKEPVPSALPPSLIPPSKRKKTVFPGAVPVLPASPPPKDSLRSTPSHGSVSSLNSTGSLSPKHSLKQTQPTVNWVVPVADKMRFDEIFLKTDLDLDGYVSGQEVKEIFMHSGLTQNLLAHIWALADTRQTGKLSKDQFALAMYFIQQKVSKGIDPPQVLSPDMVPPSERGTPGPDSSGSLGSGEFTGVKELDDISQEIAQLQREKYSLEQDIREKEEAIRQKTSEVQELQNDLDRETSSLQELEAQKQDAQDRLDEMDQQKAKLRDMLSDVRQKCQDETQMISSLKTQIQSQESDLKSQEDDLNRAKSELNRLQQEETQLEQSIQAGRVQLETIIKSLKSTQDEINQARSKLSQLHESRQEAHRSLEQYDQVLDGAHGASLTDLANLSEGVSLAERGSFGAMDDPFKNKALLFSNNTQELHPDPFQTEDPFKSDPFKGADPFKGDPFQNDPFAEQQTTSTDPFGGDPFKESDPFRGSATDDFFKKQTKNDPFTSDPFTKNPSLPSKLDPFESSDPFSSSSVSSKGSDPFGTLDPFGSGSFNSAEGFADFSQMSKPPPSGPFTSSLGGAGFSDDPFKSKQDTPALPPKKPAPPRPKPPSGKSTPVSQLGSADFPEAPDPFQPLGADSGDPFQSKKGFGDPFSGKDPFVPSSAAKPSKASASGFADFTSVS

What was measured:
Assay in all cases: log2 fold change, soluble protein after heating vs DMSO (PISA); higher = thermal stabilisation; K562 cells, 10 uM, 30 min; active = over 0.2 and 3.5 SD of the protein, either way, in both replicates (recomputed)
[1] = compound: CS(=O)(=O)c1ccc(-c2cnc(N)c(C(=O)Nc3ccccc3)n2)cc1
Summary of the method: (§1)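 Soluble protein was quantified by TMTpro 16plex LC-MS/MS after channel sums were equalised. It was obtained as the supernatant after 21,000xg for 90 min from pooled aliquots of K562 cells (2×10^6 cells/mL, 10 μM compound, 30 min) heated for 3 min across 48°C-58°C and extracted in PBS with 0.5% NP-40 at 4°C. Thermal stability values are relative to control samples and come from duplicates. They are given as log2 fold changes.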

crizotinib = compound: C[C@@H](Oc1cc(-c2cnn(C3CCNCC3)c2)cnc1N)c1c(Cl)ccc(F)c1Cl [crizotinib]
Summary of the method: as §1

[2] = compound: C[C@@H]1COCCN1C2=NC(=NC(=C2)C3(CC3)S(=O)(=O)C)C4=C5C=CNC5=CC=C4
Summary of the method: as §1

[3] = compound: C[C@H](C1=CC=C(C=C1)C(=O)NC2=C3C=CNC3=NC=C2)N
Summary of the method: as §1

duvelisib = compound: C[C@H](Nc1ncnc2nc[nH]c12)c1cc2cccc(Cl)c2c(=O)n1-c1ccccc1 [duvelisib]
Summary of the method: as §1

gandotinib = compound: Cc1cc(Nc2cc(CN3CCOCC3)c3nc(C)c(Cc4ccc(Cl)cc4F)n3n2)n[nH]1 [gandotinib]
Summary of the method: as §1

tozasertib = compound: Cc1cc(Nc2cc(N3CCN(C)CC3)nc(Sc3ccc(NC(=O)C4CC4)cc3)n2)n[nH]1 [tozasertib]
Summary of the method: as §1

[4] = compound: Cc1cc(SCc2sc(-c3ccc(C(F)(F)F)cc3)nc2C)ccc1OCC(=O)O
Summary of the method: as §1

doramapimod = compound: Cc1ccc(-n2nc(C(C)(C)C)cc2NC(=O)Nc2ccc(OCCN3CCOCC3)c3ccccc23)cc1 [doramapimod]
Summary of the method: as §1

ispinesib = compound: Cc1ccc(C(=O)N(CCCN)[C@@H](c2nc3cc(Cl)ccc3c(=O)n2Cc2ccccc2)C(C)C)cc1 [ispinesib]
Summary of the method: as §1

bafetinib = compound: Cc1ccc(NC(=O)c2ccc(CN3CC[C@H](N(C)C)C3)c(C(F)(F)F)c2)cc1Nc1nccc(-c2cncnc2)n1 [bafetinib]
Summary of the method: as §1

[5] = compound: Cc1cccc(CC(=O)N2CCc3c2ccc(-c2cn(C)c4ncnc(N)c24)c3F)n1
Summary of the method: as §1

nilotinib = compound: Cc1cn(-c2cc(NC(=O)c3ccc(C)c(Nc4nccc(-c5cccnc5)n4)c3)cc(C(F)(F)F)c2)cn1 [nilotinib]
Summary of the method: as §1

[6] = compound: Cc1nc(Nc2n[nH]c3c2CN(C(=O)N[C@H](CN(C)C)c2ccccc2)C3(C)C)c2sccc2n1
Summary of the method: as §1

dasatinib = compound: Cc1nc(Nc2ncc(C(=O)Nc3c(C)cccc3Cl)s2)cc(N2CCN(CCO)CC2)n1 [dasatinib]
Summary of the method: as §1

[7] = compound: Cc1ncc(-c2ccnc(Nc3ccc(S(C)(=O)=O)cc3)n2)n1C(C)C
Summary of the method: as §1

[8] = compound: Cn1cc(-c2ccc3c(c2)CCN3C(=O)Cc2cccc(C(F)(F)F)c2)c2c(N)ncnc21
Summary of the method: as §1

[9] = compound: Cn1cc(-c2ccc3nnc(C(F)(F)c4ccc5ncccc5c4)n3n2)cn1
Summary of the method: as §1

tipifarnib = compound: Cn1cncc1[C@@](N)(c1ccc(Cl)cc1)c1ccc2c(c1)c(-c1cccc(Cl)c1)cc(=O)n2C [tipifarnib]
Summary of the method: as §1

mubritinib = compound: FC(F)(F)c1ccc(/C=C/c2nc(COc3ccc(CCCCn4ccnn4)cc3)co2)cc1 [mubritinib]
Summary of the method: as §1

Measured: log2 fold change

FAM136A (UniProt Q96C01)
inactive: [1] -0.029 | crizotinib 0.112 | [2] 0.127 | [3] -0.087 | duvelisib 0.077 | gandotinib -0.052 | tozasertib 0.024 | [4] -0.028 | doramapimod 0.013 | ispinesib 0.029 | bafetinib -0.031 | [5] -0.022 | nilotinib -0.006 | [6] -0.003 | dasatinib 0.053 | [7] -0.002 | [8] 0.036 | [9] 0.057 | tipifarnib -0.022 | mubritinib -0.005

ERGIC3 isoform 3 (UniProt Q9Y282)
inactive: [1] -0.022 | crizotinib -0.015 | [2] -0.003 | [3] -0.006 | duvelisib -0.021 | gandotinib -0.015 | tozasertib 0.024 | [4] -0.027 | doramapimod -0.01 | ispinesib -0.054 | bafetinib -0.098 | [5] -0.024 | nilotinib -0.014 | [6] -0.026 | dasatinib 0.005 | [7] 0.002 | [8] -0.003 | [9] 0.015 | tipifarnib 0.025 | mubritinib -0.018

EPN2 (UniProt O95208)
inactive: [1] -0.023 | crizotinib -0.002 | [2] -0.043 | [3] 0.063 | duvelisib -0.021 | gandotinib 0.032 | tozasertib -0.061 | [4] -0.045 | doramapimod 0.056 | ispinesib -0.027 | bafetinib -0.074 | [5] -0.093 | nilotinib 0.012 | [6] -0.03 | dasatinib -0.034 | [7] -0.012 | [8] -0.033 | [9] 0.051 | tipifarnib 0.004 | mubritinib 0.03

EPPK1 (UniProt P58107)
inactive: [1] 0.117 | crizotinib -0.104 | [2] -0.316 | [3] 0.619 | duvelisib -0.133 | gandotinib 0.112 | tozasertib -0.013 | [4] 0.045 | doramapimod 0.257 | ispinesib -0.456 | bafetinib 0.065 | [5] 0.061 | nilotinib 0.018 | [6] -0.177 | dasatinib -0.07 | [7] -0.078 | [8] -0.36 | [9] -0.332 | tipifarnib 0.571 | mubritinib -0.132

Random excerpt: two entries already listed, in no set order.
FAM136A (UniProt Q96C01)
inactive: [1] -0.029 | crizotinib 0.112 | [2] 0.127 | [3] -0.087 | duvelisib 0.077 | gandotinib -0.052 | tozasertib 0.024 | [4] -0.028 | doramapimod 0.013 | ispinesib 0.029 | bafetinib -0.031 | [5] -0.022 | nilotinib -0.006 | [6] -0.003 | dasatinib 0.053 | [7] -0.002 | [8] 0.036 | [9] 0.057 | tipifarnib -0.022 | mubritinib -0.005

EPN2 (UniProt O95208)
inactive: [1] -0.023 | crizotinib -0.002 | [2] -0.043 | [3] 0.063 | duvelisib -0.021 | gandotinib 0.032 | tozasertib -0.061 | [4] -0.045 | doramapimod 0.056 | ispinesib -0.027 | bafetinib -0.074 | [5] -0.093 | nilotinib 0.012 | [6] -0.03 | dasatinib -0.034 | [7] -0.012 | [8] -0.033 | [9] 0.051 | tipifarnib 0.004 | mubritinib 0.03

Following part:

ERGIC1 (UniProt Q969X5)
inactive: [1] 0.015 | crizotinib 0.03 | [2] -0.028 | [3] -0.004 | duvelisib 0.009 | gandotinib 0.003 | tozasertib 0.017 | [4] 0.012 | doramapimod -0.023 | ispinesib -0.033 | bafetinib -0.086 | [5] -0.03 | nilotinib 0.021 | [6] -0.011 | dasatinib 0.008 | [7] 0.003 | [8] 0.049 | [9] 0.022 | tipifarnib -0.008 | mubritinib 0.034

ERLEC1 (UniProt Q96DZ1)
inactive: [1] 0.008 | crizotinib -0.01 | [2] 0.004 | [3] 0.019 | duvelisib -0.011 | gandotinib 0.03 | tozasertib 0.001 | [4] -0.003 | doramapimod 0.015 | ispinesib -0.018 | bafetinib -0.011 | [5] -0.073 | nilotinib -0.01 | [6] -0.019 | dasatinib 0.003 | [7] -0.017 | [8] -0.049 | [9] 0.003 | tipifarnib 0.046 | mubritinib -0.024

ETFA (UniProt P13804)
inactive: [1] 0.023 | crizotinib 0.021 | [2] 0.114 | [3] -0.069 | duvelisib 0.02 | gandotinib -0.055 | tozasertib -0.018 | [4] -0.012 | doramapimod -0.03 | ispinesib 0.047 | bafetinib -0.035 | [5] 0.006 | nilotinib 0.019 | [6] 0.008 | dasatinib -0.026 | [7] 0.011 | [8] 0.043 | [9] 0.048 | tipifarnib -0.022 | mubritinib 0.014

ETFDH (UniProt Q16134)
inactive: [1] -0.007 | crizotinib -0.008 | [2] 0.077 | [3] -0.035 | duvelisib 0.017 | gandotinib 0 | tozasertib 0.017 | [4] -0.044 | doramapimod -0.027 | ispinesib -0.018 | bafetinib -0.037 | [5] 0.03 | nilotinib -0.012 | [6] 0.008 | dasatinib -0.032 | [7] -0.001 | [8] 0.022 | [9] 0.025 | tipifarnib -0.001 | mubritinib 0.122

ERGIC2 (UniProt Q96RQ1)
inactive: [1] 0.006 | crizotinib -0.087 | [2] 0.076 | [3] -0.067 | duvelisib -0.002 | gandotinib -0.077 | tozasertib -0.031 | [4] 0.025 | doramapimod -0.007 | ispinesib -0.145 | bafetinib -0.105 | [5] 0.027 | nilotinib -0.038 | [6] -0.002 | dasatinib -0.024 | [7] -0.019 | [8] 0.057 | [9] 0.017 | tipifarnib -0.013 | mubritinib 0.055

FAM162A (UniProt Q96A26)
inactive: [1] -0.037 | crizotinib 0.054 | [2] 0.189 | [3] -0.015 | duvelisib 0.019 | gandotinib 0.015 | tozasertib 0.026 | [4] 0.013 | doramapimod -0.019 | ispinesib 0.034 | bafetinib -0.004 | [5] -0.096 | nilotinib 0.006 | [6] 0.015 | dasatinib -0.03 | [7] -0.029 | [8] 0.035 | [9] -0.006 | tipifarnib -0.028 | mubritinib -0.024

EXTL3 (UniProt O43909)
inactive: [1] 0.16 | crizotinib 0.006 | [2] 0.168 | [3] 0.16 | duvelisib -0.126 | gandotinib -0.123 | tozasertib 0.059 | [4] -0.051 | doramapimod 0.008 | ispinesib -0.06 | bafetinib 0.063 | [5] -0.011 | nilotinib -0.177 | [6] 0.09 | dasatinib -0.176 | [7] -0.164 | [8] 0.086 | [9] 0.001 | tipifarnib -0.025 | mubritinib -0.048

EXOSC9 isoform 2 (UniProt Q06265)
inactive: [1] 0.039 | crizotinib 0.039 | [2] -0.085 | [3] -0.003 | duvelisib 0.007 | gandotinib -0.013 | tozasertib -0.032 | [4] -0.049 | doramapimod -0.014 | ispinesib -0.044 | bafetinib -0.021 | [5] -0.04 | nilotinib 0.01 | [6] 0.012 | dasatinib 0.088 | [7] -0.02 | [8] -0.011 | [9] 0.035 | tipifarnib 0.006 | mubritinib -0.013

ERAP1 isoform 2 (UniProt Q9NZ08)
inactive: [1] 0.023 | crizotinib 0.015 | [2] -0.028 | [3] 0.071 | duvelisib -0.027 | gandotinib 0.083 | tozasertib 0.039 | [4] 0.028 | doramapimod 0.011 | ispinesib -0.016 | bafetinib 0.024 | [5] 0.058 | nilotinib 0.008 | [6] 0.049 | dasatinib 0.008 | [7] -0.032 | [8] -0.081 | [9] -0.021 | tipifarnib 0.036 | mubritinib -0.072

EPCAM (UniProt P16422)
inactive: [1] 0.067 | crizotinib 0.004 | [2] 0.046 | [3] -0.074 | duvelisib 0.049 | gandotinib -0.01 | tozasertib 0.013 | [4] -0.005 | doramapimod 0.016 | ispinesib 0.024 | bafetinib -0.035 | [5] -0.015 | nilotinib 0.042 | [6] 0.004 | dasatinib 0.058 | [7] 0.025 | [8] 0.085 | [9] -0.066 | tipifarnib 0.005 | mubritinib 0.025

EXOC3 (UniProt O60645)
inactive: [1] 0.037 | crizotinib -0.135 | [2] 0 | [3] 0.117 | duvelisib -0.008 | gandotinib -0.22 | tozasertib -0.049 | [4] 0.098 | doramapimod 0.032 | ispinesib -0.246 | bafetinib -0.001 | [5] 0.105 | nilotinib -0.008 | [6] -0.195 | dasatinib -0.144 | [7] 0.002 | [8] 0.121 | [9] -0.012 | tipifarnib -0.081 | mubritinib 0.047

EPS15L1 isoform 2 (UniProt Q9UBC2)
inactive: [1] 0.019 | crizotinib -0.022 | [2] -0.039 | [3] 0.01 | duvelisib 0 | gandotinib -0.015 | tozasertib 0.09 | [4] 0.034 | doramapimod 0 | ispinesib -0.01 | bafetinib -0.045 | [5] 0.066 | nilotinib -0.087 | [6] 0.124 | dasatinib -0.046 | [7] 0.045 | [8] -0.061 | [9] 0.006 | tipifarnib -0.081 | mubritinib 0.049
